The values that follow come from article PMC6695201.

Protein sequences, listed by entry. Tags and fused reporters are not part of them.
UniProt P22216: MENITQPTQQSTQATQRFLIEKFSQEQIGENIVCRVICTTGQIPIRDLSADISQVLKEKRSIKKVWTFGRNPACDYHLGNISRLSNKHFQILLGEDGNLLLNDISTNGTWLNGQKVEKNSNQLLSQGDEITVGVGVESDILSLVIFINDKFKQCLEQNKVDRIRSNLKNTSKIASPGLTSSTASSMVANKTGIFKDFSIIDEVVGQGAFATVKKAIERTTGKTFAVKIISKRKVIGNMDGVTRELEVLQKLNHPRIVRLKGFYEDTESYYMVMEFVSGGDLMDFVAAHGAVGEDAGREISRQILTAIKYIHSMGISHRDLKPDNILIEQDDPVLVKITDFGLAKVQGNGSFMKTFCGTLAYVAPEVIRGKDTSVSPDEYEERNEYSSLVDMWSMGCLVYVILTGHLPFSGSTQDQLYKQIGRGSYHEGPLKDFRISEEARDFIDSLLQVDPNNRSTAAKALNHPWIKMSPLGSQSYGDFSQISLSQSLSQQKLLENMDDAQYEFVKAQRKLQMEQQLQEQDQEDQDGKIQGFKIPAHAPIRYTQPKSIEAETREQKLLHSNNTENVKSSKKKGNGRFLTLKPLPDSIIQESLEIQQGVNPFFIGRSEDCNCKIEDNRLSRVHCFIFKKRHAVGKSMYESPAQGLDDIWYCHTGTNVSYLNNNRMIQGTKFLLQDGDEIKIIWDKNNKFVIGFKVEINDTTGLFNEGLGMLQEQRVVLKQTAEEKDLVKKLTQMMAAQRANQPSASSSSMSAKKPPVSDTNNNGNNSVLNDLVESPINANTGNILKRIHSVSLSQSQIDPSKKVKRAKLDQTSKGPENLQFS

These are yes or no findings as the source states them, for the method shown. For some assays here: Binding can be weak; no strength is given.

In one assay the target is Rad53 (S. cerevisiae) (UniProt P22216). Put plainly: two-hybrid; MCK1 in pGADT7, RAD53 in pGBKT7; strain AH109; growth on SC-Trp-Leu or SC-Trp-Leu-His plates with 0.5 mM 3-amino-triazole (3AT).
The target in assay [1] is FHA1 domain of Rad53 (S. cerevisiae). The assay is described as above.

mck1-T6A (from UniProt P21965) (enzyme): the binding result with Rad53 (S. cerevisiae) was “no binding”.

B1: Mck1 (enzyme, UniProt P21965 1-375)
chain: MSTEEQNGVPLQRGSEFIADDVTSNKSNNTRRMLVKEYRKIGRGAFGTVVQAYLTQDKKNWLGPFAIKKVPAHTEYKSRELQILRIADHPNIVKLQYFFTHLSPQDNKVYQHLAMECLPETLQIEINRYVTNKLEMPLKHIRLYTYQIARGMLYLHGLGVCHRDIKPSNVLVDPETGVLKICDFGSAKKLEHNQPSISYICSRFYRAPELIIGCTQYTTQIDIWGLGCVMGEMLIGKAIFQGQEPLLQLREIAKLLGPPDKRFIFFSNPAYDGPLFSKPLFSGSSQQRFEKYFGHSGPDGIDLLMKILVYEPQQRLSPRRILAHQFFNELRNDDTFLPRGFTEPIKLPNLFDFNDFELQILGEFADKIKPTKVAE
For the molecule B1, the binding result in assay [1] is listed as “binds”.
